Primary screen of a compound library

By UniProt entry, the sequences of proteins in these tests, tags left out. Residues count along the entry.
UniProt Q4DA54, 1-478: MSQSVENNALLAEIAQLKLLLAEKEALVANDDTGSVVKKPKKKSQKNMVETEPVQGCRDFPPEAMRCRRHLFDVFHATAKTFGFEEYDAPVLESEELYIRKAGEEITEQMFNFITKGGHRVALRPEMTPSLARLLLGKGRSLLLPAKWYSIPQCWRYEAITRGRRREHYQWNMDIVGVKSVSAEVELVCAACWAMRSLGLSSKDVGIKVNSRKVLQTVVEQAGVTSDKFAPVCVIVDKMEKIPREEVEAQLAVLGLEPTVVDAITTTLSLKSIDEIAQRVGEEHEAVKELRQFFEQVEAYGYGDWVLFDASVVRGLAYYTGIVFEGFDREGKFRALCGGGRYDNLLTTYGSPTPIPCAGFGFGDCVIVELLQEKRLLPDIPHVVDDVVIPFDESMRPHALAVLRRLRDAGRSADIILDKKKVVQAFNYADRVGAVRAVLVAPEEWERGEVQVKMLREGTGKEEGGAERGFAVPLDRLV
UniProt P9WNZ1, whole entry: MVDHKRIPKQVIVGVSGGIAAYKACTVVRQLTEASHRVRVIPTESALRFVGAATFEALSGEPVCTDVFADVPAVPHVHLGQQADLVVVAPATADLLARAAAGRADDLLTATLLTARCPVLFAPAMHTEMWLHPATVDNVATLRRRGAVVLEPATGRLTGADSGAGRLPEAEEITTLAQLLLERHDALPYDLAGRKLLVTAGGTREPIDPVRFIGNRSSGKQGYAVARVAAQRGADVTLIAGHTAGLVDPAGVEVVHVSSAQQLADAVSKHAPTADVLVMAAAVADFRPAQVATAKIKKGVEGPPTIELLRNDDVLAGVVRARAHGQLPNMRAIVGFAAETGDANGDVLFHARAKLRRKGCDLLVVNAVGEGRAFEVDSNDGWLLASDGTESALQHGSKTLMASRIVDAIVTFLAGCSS
UniProt A4I591, 1-473: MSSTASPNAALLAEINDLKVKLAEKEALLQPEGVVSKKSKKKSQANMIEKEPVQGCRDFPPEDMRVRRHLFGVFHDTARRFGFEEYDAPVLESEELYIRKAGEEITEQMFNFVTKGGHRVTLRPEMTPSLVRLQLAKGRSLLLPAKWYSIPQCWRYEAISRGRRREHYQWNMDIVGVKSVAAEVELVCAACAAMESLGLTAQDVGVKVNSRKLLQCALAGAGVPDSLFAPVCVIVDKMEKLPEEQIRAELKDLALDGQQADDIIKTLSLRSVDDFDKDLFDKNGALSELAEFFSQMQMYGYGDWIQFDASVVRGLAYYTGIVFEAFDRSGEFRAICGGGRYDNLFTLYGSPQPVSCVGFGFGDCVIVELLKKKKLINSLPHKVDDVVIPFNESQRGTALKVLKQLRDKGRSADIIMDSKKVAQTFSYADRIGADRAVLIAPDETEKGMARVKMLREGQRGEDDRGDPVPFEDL

TcHisRS: 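Histidine-tRNA ligase, Trypanosoma cruzi CL Brener (UniProt Q4DA54). Enzyme assay of histidyl-tRNA synthetase; the read-out is not stated. Concentration: 30 µM. Direction is inferred from retests: higher values go with stronger inhibition. Size under these conditions: about 69,000 compounds, about 31 of them at 50% or above in at least one test.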
Leishmania in macrophages: 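Cell assay of Leishmania donovani living inside macrophages; the read-out is not stated. Compounds at 30 µM. Direction is inferred from retests: higher values go with stronger inhibition. Of about 69,000 compounds tested this way, about 1,000 (1.5%) reached 50% or more in at least one test.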
Toxoplasma: 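Assay of Toxoplasma gondii numbers, read through their beta-galactosidase reporter with a colour substrate. Concentration: 10 µM. Higher reads as fewer parasites (inferred from which compounds were picked for retests). About 67,000 compounds were tested under these conditions; 0.38% (about 260) showed 50% or more at least once.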
CoaBC: 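Enzyme assay of CoaBC with a phosphate dye (Biomol Green) read at 650 nm. Target: Coenzyme A biosynthesis protein CoaBC, Mycobacterium tuberculosis (UniProt P9WNZ1). Concentration: 30 µM. Higher reads as stronger inhibition, judged from the few compounds that gave an IC50. Most strong results did not repeat in a second test. Of about 67,000 compounds tested this way, about 40 (0.06%) reached 50% or more in at least one test.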
LiHisRS: 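Histidine-tRNA ligase, Leishmania infantum (UniProt A4I591). Enzyme assay of histidyl-tRNA synthetase; the read-out is not stated. Tested at 30 µM. Direction is inferred from retests: higher values go with stronger inhibition. The assay is labelled LdHisRS but filed under L. infantum. Of about 69,000 compounds tested this way, about 410 (0.6%) reached 50% or more in at least one test.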

The filed quantity is “Percent Effect” (%). The controls that fix the scale are not given in the record; negative values are as filed. The compounds are a random part of those screened.

Result for CCOc1cccc(CNC(=O)NC2CC=CC2)c1OC(F)F was TcHisRS: -7.263%; Leishmania in macrophages: 9.133%; Toxoplasma: -6.036%; CoaBC: 2.016%; LiHisRS: 10.53%. For Cc1ccc(Cn2ccc(NS(C)(=O)=O)n2)cc1 the result was TcHisRS: 4.184%; Leishmania in macrophages: 5.579%; Toxoplasma: 9.306%; CoaBC: 1.818%; LiHisRS: 14.15%. For Cc1nc2cc(=O)[nH]n2c(C)c1CC(=O)Nc1ccc2ccccc2n1 the result was TcHisRS: 14.83%; Leishmania in macrophages: 6.34%; Toxoplasma: -14.11%; CoaBC: 3.457%; LiHisRS: 13.6%. With [H][C@]12CC[C@]([H])(CN(C)C1)N(Cc1ccccc1OCCN1CCOCC1)C2 the screen gave Leishmania in macrophages: 37.51%; Toxoplasma: -0.3921%. With Cc1nc(-c2ccncc2)ncc1C(C)NC(=O)C1=NN(C)C(=O)CC1 (stereo not drawn) the screen gave TcHisRS: 4%; Leishmania in macrophages: 5.921%; Toxoplasma: 2.186%; CoaBC: 2.381%; LiHisRS: -1.639%. Result for CCC(=O)N1CC[C@@H](c2ccc3ccccc3c2)[C@H](O)C1 was TcHisRS: 5.394%; Leishmania in macrophages: 29.89%; Toxoplasma: -2.974%; CoaBC: 2.679%; LiHisRS: 22.33%. O=S(=O)(Nc1cnn(C2CCOCC2)c1)c1c(F)cccc1F read TcHisRS: 4.348%; Leishmania in macrophages: -6.255%; Toxoplasma: 1.109%; CoaBC: 3.169%; LiHisRS: 8.738%.

With c1cnc(N2CCC(c3cc4cccnc4[nH]3)CC2)nc1 the screen gave TcHisRS: 2.281%; Leishmania in macrophages: 11.67%; Toxoplasma: 12.54%; CoaBC: 1.112%; LiHisRS: -6.207%. [H][C@@]12CN(Cc3ccco3)C[C@]1([H])OCCN2Cc1cnn(C)c1 read Leishmania in macrophages: -2.45%; Toxoplasma: -4.824%. O=C(O)C(F)(F)F.[H][C@@]12CN(Cc3ccncc3)CC[C@]1([H])CN(c1cnccn1)C2 read Leishmania in macrophages: 23.37%; Toxoplasma: 5.475%. CCn1ncc2c(C(F)(F)F)cc(-c3cnn(C)c3)nc21 read TcHisRS: 1.739%; Leishmania in macrophages: -100.6%; Toxoplasma: 2.492%; CoaBC: -4.157%; LiHisRS: 6.897%. Cc1cccc(NC2CCN(C(=O)Nc3cc(F)cc(F)c3)CC2)n1 gave TcHisRS: 0.7519%; Leishmania in macrophages: 26.33%; CoaBC: -0.7712%; LiHisRS: -5.618%. For CCS(=O)(=O)c1ccc(CNc2c(Cl)cccc2C#N)cc1 the result was TcHisRS: 6.18%; Leishmania in macrophages: 29.23%; Toxoplasma: -7.778%; CoaBC: -9.054%; LiHisRS: 12.82%. Result for O=C(NCCCn1cccn1)C1(c2cccc(Cl)c2)CC1 was TcHisRS: -1.84%; Leishmania in macrophages: -23.93%; Toxoplasma: 3.239%; CoaBC: 3.457%; LiHisRS: 24.69%.

Result for CC(C)N1CCCC2(CCN(Cc3noc(C4CCCC4)n3)C2)C1=O (stereo not drawn) was TcHisRS: -2.235%; Leishmania in macrophages: 2.18%; Toxoplasma: 3.916%; CoaBC: -1.542%; LiHisRS: 5.208%. Result for Cn1nc(C(=O)NCc2cccc(Cn3ccnc3)c2)ccc1=O was TcHisRS: 1.02%; Leishmania in macrophages: 15.82%; Toxoplasma: 8.698%; CoaBC: 4.536%; LiHisRS: 20%. Result for CCC(=O)NC(Cc1cc(N(C)C)nc(C2CC2)n1)c1ccccc1 (stereo not drawn) was TcHisRS: 0.2857%; Leishmania in macrophages: 15.03%; Toxoplasma: -15.42%; CoaBC: 0.2283%; LiHisRS: 8.054%. N#Cc1cccnc1N1CCC(Nc2ccccc2)C1 (stereo not drawn) gave TcHisRS: 9.045%; Leishmania in macrophages: 28.46%; Toxoplasma: 9.423%; CoaBC: 7.443%; LiHisRS: 5.882%. Result for CS(=O)(=O)CC(=O)N(CCN1CCOCC1)Cc1ccco1 was TcHisRS: 3.518%; Leishmania in macrophages: -78.1%; Toxoplasma: -33.98%; CoaBC: -2.774%; LiHisRS: -0.8%. OCC(O)CN1CCc2onc(-c3ccc(C(F)(F)F)cc3)c2C1 (stereo not drawn) read TcHisRS: 8.861%; Leishmania in macrophages: 3.869%; Toxoplasma: -4.592%; CoaBC: 1.442%; LiHisRS: 16.67%. C[C@@H]1CN(C2(C(=O)N3CC[C@H](O)C3)Cc3ccccc3C2)C[C@H](C)O1 read TcHisRS: 0%; Leishmania in macrophages: 0.07108%; Toxoplasma: -2.11%; CoaBC: 5.71%; LiHisRS: 12.33%.

Data taken from ChEMBL document CHEMBL3988442, “University of Dundee, Small-Polar-MMV Screening Library” (2021).